Data taken from patent US7276582 (JAPAN SCIENCE AND TECHNOLOGY AGENCY, dated 2007).
Results are given in words; binding and its absence hold for the method and conditions named. Binding seen in cells or lysates may run through a third protein. Some entries that bind do so weakly or less than the wild type. For part of these data: Sequences can lack the tags named with a protein.

By UniProt entry, the sequences of proteins in these tests, tags left out. Where a name states a change or a piece, a line headed by the entry shows the natural chain unless it says otherwise. Residues count along the entry.
UniProt P11881: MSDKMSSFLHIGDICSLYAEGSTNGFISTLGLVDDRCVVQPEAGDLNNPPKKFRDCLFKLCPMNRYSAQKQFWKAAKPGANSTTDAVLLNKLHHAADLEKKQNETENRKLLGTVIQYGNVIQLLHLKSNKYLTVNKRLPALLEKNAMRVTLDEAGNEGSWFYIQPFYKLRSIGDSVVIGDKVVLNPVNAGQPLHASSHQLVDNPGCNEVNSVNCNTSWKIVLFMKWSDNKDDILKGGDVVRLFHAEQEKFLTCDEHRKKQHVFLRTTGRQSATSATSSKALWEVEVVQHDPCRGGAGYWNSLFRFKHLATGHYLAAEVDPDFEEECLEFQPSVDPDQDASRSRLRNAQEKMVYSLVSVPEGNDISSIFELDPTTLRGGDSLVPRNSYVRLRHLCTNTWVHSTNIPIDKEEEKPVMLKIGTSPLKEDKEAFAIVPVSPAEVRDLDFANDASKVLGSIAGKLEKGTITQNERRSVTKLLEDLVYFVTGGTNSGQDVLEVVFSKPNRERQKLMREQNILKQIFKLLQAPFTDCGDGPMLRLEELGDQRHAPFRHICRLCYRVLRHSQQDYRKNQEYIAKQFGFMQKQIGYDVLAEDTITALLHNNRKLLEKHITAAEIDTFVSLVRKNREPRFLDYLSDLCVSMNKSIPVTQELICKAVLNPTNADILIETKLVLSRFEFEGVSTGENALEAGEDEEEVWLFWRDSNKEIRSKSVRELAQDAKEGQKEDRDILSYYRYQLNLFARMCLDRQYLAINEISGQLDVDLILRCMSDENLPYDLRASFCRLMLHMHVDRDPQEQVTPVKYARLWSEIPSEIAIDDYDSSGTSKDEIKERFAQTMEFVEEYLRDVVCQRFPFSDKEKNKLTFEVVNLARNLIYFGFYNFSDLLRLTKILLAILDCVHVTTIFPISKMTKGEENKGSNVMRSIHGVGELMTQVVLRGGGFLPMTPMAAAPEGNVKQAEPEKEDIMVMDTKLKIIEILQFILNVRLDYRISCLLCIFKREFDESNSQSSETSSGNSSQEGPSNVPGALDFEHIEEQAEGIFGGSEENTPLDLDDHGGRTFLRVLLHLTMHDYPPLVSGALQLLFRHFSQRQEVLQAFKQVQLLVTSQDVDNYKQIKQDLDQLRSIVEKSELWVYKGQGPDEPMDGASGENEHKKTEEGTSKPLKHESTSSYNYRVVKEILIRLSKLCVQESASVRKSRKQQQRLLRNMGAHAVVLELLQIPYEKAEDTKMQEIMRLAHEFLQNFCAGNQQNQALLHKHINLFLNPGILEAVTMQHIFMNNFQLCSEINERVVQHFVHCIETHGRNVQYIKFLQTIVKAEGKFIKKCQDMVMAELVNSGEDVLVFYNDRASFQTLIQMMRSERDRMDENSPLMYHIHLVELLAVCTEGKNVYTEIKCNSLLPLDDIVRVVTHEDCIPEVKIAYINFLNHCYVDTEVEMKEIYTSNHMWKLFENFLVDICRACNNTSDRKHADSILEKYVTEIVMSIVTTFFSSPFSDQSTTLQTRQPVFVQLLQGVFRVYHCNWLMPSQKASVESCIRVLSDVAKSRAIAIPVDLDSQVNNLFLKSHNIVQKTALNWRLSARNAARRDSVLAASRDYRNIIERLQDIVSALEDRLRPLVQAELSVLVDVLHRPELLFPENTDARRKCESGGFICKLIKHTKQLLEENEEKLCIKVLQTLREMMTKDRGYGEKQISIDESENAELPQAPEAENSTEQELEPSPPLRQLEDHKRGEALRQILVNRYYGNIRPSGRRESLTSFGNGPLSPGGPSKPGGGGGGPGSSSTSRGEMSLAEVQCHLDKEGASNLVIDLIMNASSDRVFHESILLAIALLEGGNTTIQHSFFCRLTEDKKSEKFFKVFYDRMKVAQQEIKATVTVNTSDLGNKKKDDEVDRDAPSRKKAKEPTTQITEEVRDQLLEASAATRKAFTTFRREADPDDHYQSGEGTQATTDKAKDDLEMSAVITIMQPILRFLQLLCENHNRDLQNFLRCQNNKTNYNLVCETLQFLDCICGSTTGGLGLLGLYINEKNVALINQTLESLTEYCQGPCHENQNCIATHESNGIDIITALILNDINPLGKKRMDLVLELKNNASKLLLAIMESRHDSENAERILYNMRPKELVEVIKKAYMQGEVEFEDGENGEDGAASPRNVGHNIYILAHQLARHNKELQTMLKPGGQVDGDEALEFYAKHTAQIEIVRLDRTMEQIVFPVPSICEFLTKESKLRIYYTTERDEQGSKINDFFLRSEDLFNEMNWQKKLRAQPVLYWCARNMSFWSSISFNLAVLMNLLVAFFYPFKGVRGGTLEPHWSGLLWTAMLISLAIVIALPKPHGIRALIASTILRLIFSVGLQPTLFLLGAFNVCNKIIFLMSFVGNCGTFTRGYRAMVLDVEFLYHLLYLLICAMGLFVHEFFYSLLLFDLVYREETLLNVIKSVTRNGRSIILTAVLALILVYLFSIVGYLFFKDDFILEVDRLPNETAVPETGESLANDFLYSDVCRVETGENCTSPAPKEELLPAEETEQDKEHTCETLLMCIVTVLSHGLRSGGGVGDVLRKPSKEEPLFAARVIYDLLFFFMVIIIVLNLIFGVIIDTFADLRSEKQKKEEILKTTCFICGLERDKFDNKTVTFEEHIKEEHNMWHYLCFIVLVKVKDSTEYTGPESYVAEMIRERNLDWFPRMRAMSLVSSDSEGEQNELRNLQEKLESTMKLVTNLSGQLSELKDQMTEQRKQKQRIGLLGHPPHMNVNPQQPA
GST-IP3R1 (1-2217) (GST-EL): residues 1-2217 of P11881

Tests used:
GST-CARP (mouse) = molecular target: T1, GST-CARP (mouse) (UniProt P28651); test: GST pull-down from detergent extract of mouse cerebellar microsome, immunoblot with anti-IP3R1 antibody KM1112
T1 sequence: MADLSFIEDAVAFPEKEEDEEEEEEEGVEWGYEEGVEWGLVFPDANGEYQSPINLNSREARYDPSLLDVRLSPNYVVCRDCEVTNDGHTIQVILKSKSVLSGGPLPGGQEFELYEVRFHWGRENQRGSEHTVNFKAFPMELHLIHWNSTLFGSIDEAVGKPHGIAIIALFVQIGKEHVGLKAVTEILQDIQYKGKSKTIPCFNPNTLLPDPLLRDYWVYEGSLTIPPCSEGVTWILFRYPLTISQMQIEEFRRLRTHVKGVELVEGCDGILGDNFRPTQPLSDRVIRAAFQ

[1] = molecular target: GST-IP3R1 (1-2217) (GST-EL) (mouse) (UniProt P11881); test: GST pull-down from mouse cerebellar cytosolic fraction, Western blot with anti-CARP antibody
[2] = molecular target: GST-IP3R1 (1-2217) (GST-EL) (mouse) (UniProt P11881); test: GST pull-down of purified CARP-His, immunoblot with anti-CARP antibody

With “IP3R1 of the detergent extract of mouse cerebellar microsome (from UniProt P11881 1-2749) (receptor)” the binding (GST-CARP (mouse)) was “binds”.

B1: CARP of the cytosolic fraction of mouse cerebellum (other)
chain: T1 sequence
notes: Endogenous protein in a tissue fraction, detected by Western blotting with anti-CARP polyclonal antibody; also called endogenous CARP
For B1, the binding [1] was “binds”.

B2: CARP-His (protein, not shown: small tags and cut ends)
chain: T1 sequence
B2 was tested, and the binding [2] was “binds”.
